The whole screen tested about 320,000 compounds, of which about 2,100 (0.66%) were called active. Inconclusive results, whose numbers are uncertain, are shown with a selection of clear calls. Calls come from the whole dose curve; as a rule, active = well fitted inhibition curve with a large enough effect in the signal ratio, with a control signal flat (not every such curve was filed as active); inconclusive = small, poorly fitted or top-dose-only effect, or effect the other way, or a change in a side signal; inactive = flat fitted curve, though single readings scatter; the % refers to the signal ratio. A potency beside an inconclusive call is a rough fit, not a confirmed value.
Assay: qHTS Assay for Lipid Storage Modulators in Drosophila S3 Cells
Conditions: BODIPY lipid droplet fluorescence, 18-24 h, cells fed with added oleic acid; lipid storage change, negative = inhibition: at 46.1 µM (top of the series) unless noted
Outline: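 Laser-scanning cytometry quantifies lipid droplet accumulation (500–530 nm total intensity; droplet/cell object ratio) in oleic acid-fed (400 uM added) Drosophila S3 cells treated with a concentration series. 20 uM Triacsin C defined 100% inhibition.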
% is set by controls: 0 for no effect and ±100 for the full control effect; potency is the fitted concentration of half-maximal effect.

Lipid storage change, negative = inhibition, inconclusive:
CCOC(=O)N1CCC(NC(=O)Cc2ccccc2)CC1 2.33%, CCc1ccccc1OCC(=O)Nc1nc(-c2cccnc2)cs1 -24.9%, COC(=O)[C@H](C)NC(=O)Nc1ccc(Oc2ccccc2)cc1 1.36%, CCOc1ccc(CCNC(=O)Cn2ccc3ccccc3c2=O)cc1OCC -26.5%, O=C(O)c1ccc(Cl)c(S(=O)(=O)NCc2ccco2)c1 -14.2%, O=C(CC1CC2CCC1C2)Nc1nc(-c2ccccn2)cs1 (stereo not drawn) -4.49%, CC(=O)NCC(=O)OCC(=O)c1ccc(Cl)cc1 7.76%, COc1ccc(-c2ccc(C(C)=O)cc2)cc1[C@H]1[C@H]2C=CC[C@@H](C)[C@@H]2C(=O)N1Cc1ccccc1 9.78%, Cc1cc(N2CCN(C(=O)c3cccs3)CC2)c(F)cc1[N+](=O)[O-] -23.4%, O=c1oc2c(CN3CCOCC3)c(O)c(Cl)cc2c2c1CCC2 38.5%, O=C(NC1CCCCC1)c1ccc([N+](=O)[O-])o1 -121%, CCc1noc(C)c1C(=O)N1CCN(S(=O)(=O)c2ccc(C(C)=O)cc2)CC1 -0.958%, CCn1c(O)c(N=NC(=O)CNc2cccc(C)c2)c2ccccc21 2.74%, Cc1cccnc1NC(=O)C1CCN(S(=O)(=O)c2c(C)noc2/C=C/c2ccco2)CC1 36.8%, COc1ccc(C)cc1NC(=O)C(Sc1nnc2ccccn12)c1ccccc1 (stereo not drawn) 25.7%, c1ccc(COc2ccc(CNCc3cccs3)cc2)cc1 -0.909%, Cc1ccc(CC(C(=O)O)C(C)C(=O)Nc2ccc(F)cc2)cc1 (stereo not drawn) 84.9%, CC1(c2nnc(Cc3ccccc3)o2)CC(c2cccc([N+](=O)[O-])c2)=NO1 (stereo not drawn) 27.5%, Cc1ccccc1CNc1ccc(C(CC(N)=O)NC(=O)c2ccc(Br)cc2)cc1[N+](=O)[O-] (stereo not drawn) 35.9%, Cc1ccc(C(=O)OC(C)C(=O)NC2CCCCC2C)s1 (stereo not drawn) -61.5%, OCC1(CO)COC2(CCCC2)N1 -99.6%, Cc1nc(-c2cccnc2)sc1C(=O)Nc1ccc(F)cc1F 9.86%, O=C(CNC(=O)c1ccccc1F)OCc1nc2ccccc2s1 -21.7%, O=C(CCCCCCCCC(=O)N/N=C/c1ccco1)N/N=C/c1ccco1 11.7%, COc1ccc(N2CCN(CC(O)COC(c3ccccc3)c3ccccc3)CC2)cc1 (stereo not drawn) 13.6%

Potency, active:
COC(=O)c1cc(OC)c(OC)cc1NC(=S)NC(=O)c1ccco1 18.4 µM

Potency, inconclusive:
CC(/C=C1\SC(=S)N(CCC(=O)Nc2cccc(C(=O)O)c2)C1=O)=C\c1ccccc1 0.103 µM [activator, full curve], Cc1cc(NC(=O)CSc2nnc3c(C)cc4ccccc4n23)no1 0.092 µM [activator, full curve, poor fit], O=C(CN1C(=O)NC2(CCCC2)C1=O)OCCOc1ccc(Br)cc1 29.1 µM [falling, partial curve, poor fit], Cc1c(S(=O)(=O)N2CCN(c3ccc(F)cc3)CC2)c(=O)n(C)c(=O)n1C 1.84 µM [falling, partial curve, poor fit], CC1Cc2cc(S(=O)(=O)N3CCCCC3C)ccc2N1C(=O)C1CCC1 (stereo not drawn) 29.1 µM [activator, single point], O=C(Nc1ccccc1F)c1cc(C(=O)Nc2ccccc2F)cc([N+](=O)[O-])c1 29.1 µM [falling, single point], Cc1noc(/C=C/c2ccccn2)c1[N+](=O)[O-] 3.26 µM [falling, single point], CC(Sc1nc2ccccc2c(=O)n1CC1CCCO1)C(=O)N(C)c1ccccc1 (stereo not drawn) 0.206 µM [falling, full curve, poor fit], COc1ccc(N2CCN(C(=O)c3ccc(COc4ccc([N+](=O)[O-])cc4)o3)CC2)cc1 2.31 µM [activator, partial curve], Cc1oc(-c2ccccc2Cl)nc1CSc1nc2c(c(=O)[nH]1)CCC2 18.4 µM [activator, single point], O=C(N/N=C/c1ccc2c(c1)OCO2)c1ccc(NC(=O)c2ccc(F)cc2)cc1 4.61 µM [falling, single point]

outcome, inactive:
Cc1ccc(SCC(=O)OCC(=O)NC(C)c2ccc(Br)cc2)cc1 (stereo not drawn) inactive [at 46.1 µM]

— PubChem BioAssay AID2685 (National Center for Advancing Translational Sciences (NCATS), 2010)
